Measured values as given in US5861405A, “S-substituted 1,3,7-trialkyl-xanthine derivatives” (priority 1994, dated 1999).
For part of these data: At least one read-out could not be matched to a standard name with certainty. For part of these data: At least one compound was matched to its structure with a doubt left.

Amino acid sequences for entries named in this document (tags omitted).
UniProt P30543, whole entry: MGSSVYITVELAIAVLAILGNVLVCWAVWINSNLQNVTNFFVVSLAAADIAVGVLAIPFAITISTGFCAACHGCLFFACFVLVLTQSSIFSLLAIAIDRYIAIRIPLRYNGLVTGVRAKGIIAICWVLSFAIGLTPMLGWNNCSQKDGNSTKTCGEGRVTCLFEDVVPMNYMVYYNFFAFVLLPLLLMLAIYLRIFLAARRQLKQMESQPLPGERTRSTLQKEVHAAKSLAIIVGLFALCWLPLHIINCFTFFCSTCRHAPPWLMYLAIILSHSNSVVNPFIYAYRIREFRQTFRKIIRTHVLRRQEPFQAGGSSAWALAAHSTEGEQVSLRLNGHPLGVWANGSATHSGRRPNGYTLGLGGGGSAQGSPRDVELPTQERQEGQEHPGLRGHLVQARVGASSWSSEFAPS

How the values were obtained:
[1] = molecular target: rat striatal A2a receptors (Rattus norvegicus, UniProt P30543); experiment: Radioligand binding, [3H]CGS 21680, rat striatal A2a receptors; design: Rat cerebral cortical membranes and striatal membranes were prepared; from tissue; host or cells: rat striatal membranes
A1 and A2 receptor sites = conditions: adenosine receptors, background; read-out: affinity constants; cited from earlier work

Compound: Cn1c(=O)c2c(nc(/C=C/c3cccc(NC(=O)OC(C)(C)C)c3)n2C)n(C)c1=O [Compound 25, 1,3,7-Trimethyl-8-(3-tert-butyloxycarbonylaminostyryl)xanthine]
- A1/A2a ratio ([1]; Table I, ratio of Ki values): 30
- reduction of potency at A2-receptors ([1]; very bulky 3-position substituents): roughly 20 fold

Compound: Cn1c(=O)c2c(ncn2C)n(C)c1=O [caffeine, 1,3,7-trimethylxanthine, reference compound]
- Ki (A1 and A2 receptor sites): 10 to 50 µM
